{
  "sequences": {"note": "Amino acid sequences for entries named in this document (tags omitted). A change or cut given only in a name is not applied to a line headed by its entry.", "UniProt Q01638": "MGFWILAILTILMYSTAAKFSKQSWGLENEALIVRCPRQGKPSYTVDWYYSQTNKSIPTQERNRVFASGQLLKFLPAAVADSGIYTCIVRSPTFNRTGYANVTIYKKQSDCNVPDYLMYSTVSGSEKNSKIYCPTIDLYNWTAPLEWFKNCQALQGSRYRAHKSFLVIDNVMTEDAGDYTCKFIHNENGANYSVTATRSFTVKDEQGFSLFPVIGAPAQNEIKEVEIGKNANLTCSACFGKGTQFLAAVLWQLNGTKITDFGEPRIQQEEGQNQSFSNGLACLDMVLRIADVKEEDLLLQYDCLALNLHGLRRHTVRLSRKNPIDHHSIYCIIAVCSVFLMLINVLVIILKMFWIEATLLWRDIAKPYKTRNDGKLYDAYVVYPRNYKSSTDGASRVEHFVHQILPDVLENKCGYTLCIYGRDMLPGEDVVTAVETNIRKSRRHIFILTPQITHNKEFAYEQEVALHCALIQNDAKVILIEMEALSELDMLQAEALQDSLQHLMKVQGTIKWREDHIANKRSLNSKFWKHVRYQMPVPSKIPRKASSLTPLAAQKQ"},
  "source": "PubChem BioAssay AID1259354",
  "about": "(Paczesny and Yang Labs, IUPUI and University of Michigan, 2018)",
  "note": "Out of some 78,000 compounds screened, about 1,800 (2.3%) were called active. The shares of active, inactive and inconclusive entries below differ from those in the screen. No stated cut-off is given here; in the data, active means inhibition above about 30%; inconclusive means mostly about 10% to 28%; inactive means weaker than that.",
  "data": [
    {"target": "Interleukin-1 receptor-like 1 (Homo sapiens) (UniProt Q01638)", "assay": "blocks human ST2 binding to IL-33, primary screen, biochemical, AlphaLISA (AID 1259354)", "conditions": "AlphaLISA ST2-Fc/biotin-IL-33 interaction, 1 h; at 17 µM, stronger effect = higher value", "values": [
      {"molecule": "COc1cc(CN2CCSCC2)ccc1OCc1ccccc1", "inhibition": "inconclusive: 11%"},
      {"molecule": "O=S(=O)(c1ccccc1)c1nc(-c2ccccc2Cl)oc1N1CCOCC1", "inhibition": "inconclusive: 19%"},
      {"molecule": "CC(=O)c1ccc(NC(=O)c2cc(-c3ccc4c(c3)OCO4)on2)cc1", "inhibition": "active: 31%"},
      {"molecule": "Cc1ncc(C(=O)N2CCC(N3CCCC(C(=O)NC4CC4)C3)CC2)cn1", "note": "(configuration not stated)", "inhibition": "inconclusive: 10%"},
      {"molecule": "O=C(O)c1cccc2c1C(=O)c1cc(Cl)ccc1-2", "inhibition": "inconclusive: 12%"},
      {"molecule": "CCCn1cnc2sc(C(=O)Oc3ccc(C(=O)OC)cc3)c(C)c2c1=O", "inhibition": "inactive"},
      {"molecule": "COc1ccc(CCNC(=O)[C@@H](C)C2CC[C@@]3(C)CC[C@H](NC(=O)c4ccncc4)[C@@H](C)[C@@H]3[C@H]2O)cc1OC", "note": "(some centres not stated)", "inhibition": "inconclusive: 21%"},
      {"molecule": "CC1CCCCN1CCNC(=O)CN1C(=O)C2CCCCN2c2ccc(S(=O)(=O)N(C)C)cc21", "note": "(configuration not stated)", "inhibition": "inconclusive: 10%"},
      {"molecule": "Cn1cnc([N+](=O)[O-])c1Sc1nc2ccccc2[nH]1", "inhibition": "inconclusive: 22%"},
      {"molecule": "CCOC(=O)c1c(-c2ccccc2)oc2ccc(O)c(CN3CCCC3)c12", "inhibition": "inconclusive: 10%"},
      {"molecule": "CSc1nc2sc3c(c2c(=O)n1-c1ccccc1)CC(C(C)C)OC3", "note": "(configuration not stated)", "inhibition": "inconclusive: 17%"},
      {"molecule": "COc1cc(NC(=O)c2ccccc2[N+](=O)[O-])c(C(=O)O)cc1OC", "inhibition": "inconclusive: 16%"},
      {"molecule": "CC[C@H]1CN(C(C)=O)CC[C@H]1CC(=O)Nc1nccs1", "inhibition": "inactive"},
      {"molecule": "COCc1nc(N2CCCC(Oc3ccc(F)cc3)C2)c2cnn(C)c2n1", "note": "(configuration not stated)", "inhibition": "inconclusive: 14%"},
      {"molecule": "O=C(c1cnccn1)N1C[C@@H]2C[C@H](C1)c1ccc(-c3ccc(OC(F)(F)F)cc3)c(=O)n1C2", "inhibition": "inconclusive: 29%"},
      {"molecule": "CCCn1nccc1C(=O)Nc1c(C)cnn1C(CC)CC", "inhibition": "inconclusive: 19%"},
      {"molecule": "CC(C)(CO)NC(=O)c1ccc(Cl)c(S(=O)(=O)N2CCCCC2)c1", "inhibition": "inactive"},
      {"molecule": "O=C(CC(c1ccccc1)c1ccc2c(c1)OCO2)NCCc1cscn1", "note": "(configuration not stated)", "inhibition": "inactive"},
      {"molecule": "CN1C[C@@H](NC(=O)Nc2ccccc2)C[C@H]1c1nc(-c2ccc(Cl)cc2)no1", "inhibition": "inconclusive: 27%"},
      {"molecule": "O=C(Nc1nc(-c2cc3ccccc3oc2=O)cs1)c1ccc(F)cc1", "inhibition": "inconclusive: 21%"},
      {"molecule": "CCn1nc(C)c(CNC(=O)C2CCC(=O)N(CCc3ccccn3)C2)c1C", "note": "(configuration not stated)", "inhibition": "inconclusive: 10%"},
      {"molecule": "CN(C)c1nc2c(c(-c3ccccc3CN3CCOCC3)n1)CCCC2", "inhibition": "inactive"},
      {"molecule": "COc1ccc(CNc2ccc3c(c2)ncn3C)c(OC)c1", "inhibition": "inconclusive: 15%"},
      {"molecule": "O=[N+]([O-])c1ccccc1S(=O)(=O)N1CCN(c2ccc(Cl)cc2)CC1", "inhibition": "inconclusive: 20%"},
      {"molecule": "COc1ccccc1Cn1c(-c2ccccc2)cn2c3c(=O)n(C)c(=O)n(C)c3nc12", "inhibition": "inactive"},
      {"molecule": "CN(Cc1cn[nH]c1-c1ccc(F)cc1)Cc1c(Cl)cncc1Cl", "inhibition": "inconclusive: 13%"},
      {"molecule": "Cc1ccc2c(c1)CN(CC(=O)NCc1cn3c(C)cccc3n1)CC(c1ccsc1)O2", "note": "(configuration not stated)", "inhibition": "inactive"},
      {"molecule": "Cc1ccc(NS(=O)(=O)c2ccc(Cl)cc2)nc1", "inhibition": "inactive"},
      {"molecule": "O=C(CCCCCn1c(=O)[nH]c2ccsc2c1=O)NCc1ccccc1Cl", "inhibition": "inactive"},
      {"molecule": "COc1ccc(CN2C[C@H](O)C[C@H]2c2nc(-c3cccc([N+](=O)[O-])c3)no2)cc1", "inhibition": "inconclusive: 17%"},
      {"molecule": "c1coc(C2=Nc3ccccc3SC(c3ccc4c(c3)OCO4)C2)c1", "note": "(configuration not stated)", "inhibition": "inconclusive: 23%"},
      {"molecule": "Cc1ccc(S(=O)(=O)CCc2nc3ccccc3n2CC(=O)O)cc1", "inhibition": "inactive"},
      {"molecule": "CCCOc1ccc(OCCSc2nc3ccccc3c(=O)[nH]2)cc1", "inhibition": "inactive"},
      {"molecule": "CC(=O)Oc1ccc2c(C)c(Cc3ccccc3)c(=O)oc2c1C", "inhibition": "inactive"},
      {"molecule": "Nc1ccc(OC(F)(F)C(F)F)c(N)c1", "inhibition": "inconclusive: 17%"},
      {"molecule": "Fc1ccc(-c2nnn(Cc3nc(Cc4ccccc4)n[nH]3)n2)cc1", "inhibition": "inconclusive: 11%"},
      {"molecule": "COC(=O)c1c(NC(=O)c2ccc(Br)cc2)sc2c1CCN(C(C)C)C2", "inhibition": "inconclusive: 13%"},
      {"molecule": "N#C/C(=C\\c1ccc(O)cc1)c1nc2ccccc2[nH]1", "inhibition": "inconclusive: 21%"},
      {"molecule": "COc1cccc2cc(-c3nc(-c4cccs4)cs3)c(=O)oc12", "inhibition": "inconclusive: 26%"},
      {"molecule": "O=c1[nH]c2ccc(S(=O)(=O)Nc3ccc(OC(F)(F)Cl)cc3)cc2o1", "inhibition": "inconclusive: 15%"},
      {"molecule": "COc1ccc(-c2cc(C(F)(F)F)nc(NCc3cccnc3)n2)cc1", "inhibition": "inactive"},
      {"molecule": "COC(=O)C1C(=O)C2=C(CC1C)NC(C)=C(C(=O)OCc1ccc(OC)cc1)C2c1ccc(C)o1", "note": "(configuration not stated)", "inhibition": "inconclusive: 15%"},
      {"molecule": "CC(C)COc1ccccc1CN(C)C(=O)CC1CCS(=O)(=O)C1", "note": "(configuration not stated)", "inhibition": "inconclusive: 16%"},
      {"molecule": "O=C(COc1ccccc1)N1C[C@@H]2C[C@H](C1)c1c(-c3ccc4ccccc4c3)ccc(=O)n1C2", "inhibition": "inconclusive: 20%"},
      {"molecule": "CN(Cc1cc(-c2ccccc2)n[nH]1)c1nccc(N2CCC(O)CC2)n1", "inhibition": "inconclusive: 13%"},
      {"molecule": "CN(C)C(=O)c1ccc(S(=O)(=O)NC2CCCCCC2)s1", "inhibition": "inactive"},
      {"molecule": "COc1ccc(-c2ncnn2-c2cccc(Cl)c2C)cc1", "inhibition": "inconclusive: 24%"}
    ]}
  ]
}
